Patent US8791156B2, “Polyacetylene compound, an extract containing the same and application thereof” (priority 2011, dated 2014)
Some entries share one result that the patent states for a list of compounds. At least one structure is not confirmed: it was looked up by name or label, or the drawing left a doubt.

Tested on: mouse macrophage (RAW 264.7 cell)
Test: Inhibition of NO production (nitrite by Greiss reaction) in LPS-treated mouse macrophages
Format: cell-based
Details: RAW 264.7 cells, LPS 1 μg/mL, nitrites by Greiss reaction; FIG. 3
From the text: This embodiment uses an analytical method to induce the macrophage of an inflaming mouse, with combination of Greiss reaction, to measure nitrites so as to indirectly measure the output of nitrogen monoxide (NO). As NO is a significant factor in the inflaming reaction, the output of NO can be used to evaluate the degree of inflaming reaction.
In brief, culture mouse macrophage (RAW 264.7 cell) pre-cultured in a 75 cm^2 culture dish in a 96 well plate at a density of 2×10^5 cells/well. The culture solution used is DMEM with 10% FBS, 100 units/mL penicillin and 100 μg/mL streptomycin. The culturing environment is 37° C. and 5% CO2 cell incubator. Let the normally attaching cells pass or not pass the LPS (1 μg/mL) processing with addition or no addition of the compounds obtained from Embodiment II. Then, use Greiss reaction to measure the concentration of nitrites in the upper clarified liquid of the culture solution after culturing the cells.
The experimental results are shown in FIG. 3, wherein, the ability of each compound to inhibit production of NO is shown through the method of IC50. IC50 represents 50% of the inhibiting concentration, i.e., […]. From the data in the figure, it is known that the compounds obtained from Embodiment II all manifest an effect of inhibiting production of NO, i.e., an anti-inflammation effect.

Structure (SMILES) | IC50 of inhibiting production of NO
COc1c(C)c(-c2c(C)c(OC)c3c(c2OC)OCO3)c(OC)c2c1OCO2 [Compound e, 2,2′5,5′-tetramethoxy-3,4,3′,4′-bimethylenedioxy-6,6′-dimethylbiphenyl] | higher than 20 μg/mL
C=C(CC[C@@H](C(=O)O)[C@H]1C[C@H](O)[C@@]2(C)C3=CC[C@H]4C(C)(C)[C@@H](O)CC[C@]4(C)C3=CC[C@]12C)C(C)C [Compound g, Dehydrosulfurenic acid] | higher than 20 μg/mL
